In experiment [1] the target is STAT1α-myc (signal transducer and activator of transcription 1, isoform α) (UniProt P42224). Nature of the experiment: co-IP; HEK-293T co-transfected with STAT1α-myc or STAT1β-myc and ALK1-HA, ALK5-HA or TβRII-HA, 48 h; RIPA lysate (500 μg protein) with anti-Myc or anti-HA IP affinity gel overnight at 4 °C; immunoblot with anti-HA or anti-myc; also in the absence or presence of TGF-β1 (10 ng/ml) for 24 and 48 h.

Sequences of proteins named here, by UniProt entry; tags and fusion partners are left off. A change or cut given only in a name is not applied to a line headed by its entry. Residues count along the entry.
UniProt P42224: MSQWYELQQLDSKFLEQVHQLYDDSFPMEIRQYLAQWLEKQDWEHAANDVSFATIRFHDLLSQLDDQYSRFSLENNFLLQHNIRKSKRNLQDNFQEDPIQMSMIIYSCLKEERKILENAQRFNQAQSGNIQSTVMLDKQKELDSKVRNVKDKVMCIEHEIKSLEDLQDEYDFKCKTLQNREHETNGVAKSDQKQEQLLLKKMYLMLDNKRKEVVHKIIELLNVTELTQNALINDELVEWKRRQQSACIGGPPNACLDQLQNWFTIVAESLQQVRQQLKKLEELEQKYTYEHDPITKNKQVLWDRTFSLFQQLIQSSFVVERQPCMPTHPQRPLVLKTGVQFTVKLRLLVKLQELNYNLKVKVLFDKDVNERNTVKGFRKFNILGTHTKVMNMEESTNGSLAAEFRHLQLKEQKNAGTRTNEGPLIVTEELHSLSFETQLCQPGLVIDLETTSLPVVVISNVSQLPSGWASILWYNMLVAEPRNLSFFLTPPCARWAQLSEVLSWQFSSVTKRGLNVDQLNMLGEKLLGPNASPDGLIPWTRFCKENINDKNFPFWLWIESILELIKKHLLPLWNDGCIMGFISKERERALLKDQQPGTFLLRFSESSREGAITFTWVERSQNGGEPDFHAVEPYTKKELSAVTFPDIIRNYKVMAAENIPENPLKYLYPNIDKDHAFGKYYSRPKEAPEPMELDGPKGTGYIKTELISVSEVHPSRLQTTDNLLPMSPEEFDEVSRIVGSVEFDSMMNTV
STAT1β-myc (signal transducer and activator of transcription 1, isoform β): residues 1-712 of P42224
UniProt P37173, residues 23-567: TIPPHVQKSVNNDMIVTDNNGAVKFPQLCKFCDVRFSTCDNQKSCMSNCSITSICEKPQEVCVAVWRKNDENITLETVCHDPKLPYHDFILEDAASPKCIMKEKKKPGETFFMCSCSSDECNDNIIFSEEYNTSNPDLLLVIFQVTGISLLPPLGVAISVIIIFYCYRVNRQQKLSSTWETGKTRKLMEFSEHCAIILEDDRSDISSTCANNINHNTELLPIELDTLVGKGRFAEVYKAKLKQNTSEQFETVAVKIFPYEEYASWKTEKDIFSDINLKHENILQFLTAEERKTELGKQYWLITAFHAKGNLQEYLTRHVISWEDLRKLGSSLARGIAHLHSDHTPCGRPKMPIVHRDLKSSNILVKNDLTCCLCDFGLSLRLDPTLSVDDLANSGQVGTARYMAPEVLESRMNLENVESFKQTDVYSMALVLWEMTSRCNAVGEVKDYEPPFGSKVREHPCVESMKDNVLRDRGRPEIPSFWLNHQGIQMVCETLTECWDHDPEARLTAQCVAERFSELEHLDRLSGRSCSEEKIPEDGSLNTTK
UniProt P37023, residues 22-503: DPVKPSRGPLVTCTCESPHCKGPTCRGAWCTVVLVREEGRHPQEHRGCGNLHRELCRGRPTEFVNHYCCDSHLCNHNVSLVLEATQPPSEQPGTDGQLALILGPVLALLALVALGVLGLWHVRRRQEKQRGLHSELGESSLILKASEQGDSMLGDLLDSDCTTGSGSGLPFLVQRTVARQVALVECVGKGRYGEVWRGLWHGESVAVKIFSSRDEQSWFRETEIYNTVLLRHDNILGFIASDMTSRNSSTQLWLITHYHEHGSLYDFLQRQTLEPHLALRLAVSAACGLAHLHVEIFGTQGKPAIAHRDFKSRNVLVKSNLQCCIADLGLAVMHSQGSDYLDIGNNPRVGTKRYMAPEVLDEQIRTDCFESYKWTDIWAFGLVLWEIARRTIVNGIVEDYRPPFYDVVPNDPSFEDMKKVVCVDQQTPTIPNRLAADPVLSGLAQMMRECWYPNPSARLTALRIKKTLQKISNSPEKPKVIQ

Experiment [2] addresses STAT1β-myc (signal transducer and activator of transcription 1, isoform β) (UniProt P42224). The experiment is described as above.

These are yes or no findings as the source states them, for the method shown. In cells and extracts the contact can be indirect. Some binding calls cover weakened binding; strength is not graded here. Sequences can lack the tags named with a protein.

Our source for the binding values is publication PMC5948853.

With “TβRII-HA (TGF-β type II receptor) (from UniProt P37173 23-567)”, the binding entry in experiment [1] and in experiment [2] was “binds” each time.
“ALK1-HA (activin receptor-like kinase 1, TGF-β type I receptor) (from UniProt P37023 22-503)”: the binding result in experiment [1] and in experiment [2] was “binds” each time.

B1: ALK5-HA (activin receptor-like kinase 5, TGF-β type I receptor) (receptor, UniProt P36897 34-503)
chain: LQCFCHLCTKDNFTCVTDGLCFVSVTETTDKVIHNSMCIAEIDLIPRDRPFVCAPSSKTGSVTTTYCCNQDHCNKIELPTTVKSSPGLGPVELAAVIAGPVCFVCISLMLMVYICHNRTVIHHRVPNEEDPSLDRPFISEGTTLKDLIYDMTTSGSGSGLPLLVQRTIARTIVLQESIGKGRFGEVWRGKWRGEEVAVKIFSSREERSWFREAEIYQTVMLRHENILGFIAADNKDNGTWTQLWLVSDYHEHGSLFDYLNRYTVTVEGMIKLALSTASGLAHLHMEIVGTQGKPAIAHRDLKSKNILVKKNGTCCIADLGLAVRHDSATDTIDIAPNHRVGTKRYMAPEVLDDSINMKHFESFKRADIYAMGLVFWEIARRCSIGGIHEDYQLPYYDLVPSDPSVEEMRKVVCEQKLRPNIPNRWQSCEALRVMAKIMRECWYANGAARLTALRIKKTLSQLSQQEGIKM
Consider B1, for which the binding entry in experiment [1] and in experiment [2] was “binds” throughout.
